The list shows a part of the results.
Compound: CC1Cc2ccccc2N1C(=O)C1CCCN(C1)C(=O)CCl (mixture of isomers) [TRIM25 ligand 11 (diastereomer mixture)]
Assay: probe-labelled cysteine peptide fold change vs DMSO (competition) (log2 fold change); higher = less target engagement (more negative = stronger competition)
Conditions: THP-1, incubation time: 4 h
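Also: competitive chemoproteomic profiling in live THP-1 cells with an iodoacetamide desthiobiotin (IA-DTB) probe, comparing probe-labelled peptide intensities in compound-treated cells against DMSO-treated controls.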

Amino acid sequences for entries named in this document (tags omitted). A change or cut given only in a name is not applied to a line headed by its entry.
UniProt P27708: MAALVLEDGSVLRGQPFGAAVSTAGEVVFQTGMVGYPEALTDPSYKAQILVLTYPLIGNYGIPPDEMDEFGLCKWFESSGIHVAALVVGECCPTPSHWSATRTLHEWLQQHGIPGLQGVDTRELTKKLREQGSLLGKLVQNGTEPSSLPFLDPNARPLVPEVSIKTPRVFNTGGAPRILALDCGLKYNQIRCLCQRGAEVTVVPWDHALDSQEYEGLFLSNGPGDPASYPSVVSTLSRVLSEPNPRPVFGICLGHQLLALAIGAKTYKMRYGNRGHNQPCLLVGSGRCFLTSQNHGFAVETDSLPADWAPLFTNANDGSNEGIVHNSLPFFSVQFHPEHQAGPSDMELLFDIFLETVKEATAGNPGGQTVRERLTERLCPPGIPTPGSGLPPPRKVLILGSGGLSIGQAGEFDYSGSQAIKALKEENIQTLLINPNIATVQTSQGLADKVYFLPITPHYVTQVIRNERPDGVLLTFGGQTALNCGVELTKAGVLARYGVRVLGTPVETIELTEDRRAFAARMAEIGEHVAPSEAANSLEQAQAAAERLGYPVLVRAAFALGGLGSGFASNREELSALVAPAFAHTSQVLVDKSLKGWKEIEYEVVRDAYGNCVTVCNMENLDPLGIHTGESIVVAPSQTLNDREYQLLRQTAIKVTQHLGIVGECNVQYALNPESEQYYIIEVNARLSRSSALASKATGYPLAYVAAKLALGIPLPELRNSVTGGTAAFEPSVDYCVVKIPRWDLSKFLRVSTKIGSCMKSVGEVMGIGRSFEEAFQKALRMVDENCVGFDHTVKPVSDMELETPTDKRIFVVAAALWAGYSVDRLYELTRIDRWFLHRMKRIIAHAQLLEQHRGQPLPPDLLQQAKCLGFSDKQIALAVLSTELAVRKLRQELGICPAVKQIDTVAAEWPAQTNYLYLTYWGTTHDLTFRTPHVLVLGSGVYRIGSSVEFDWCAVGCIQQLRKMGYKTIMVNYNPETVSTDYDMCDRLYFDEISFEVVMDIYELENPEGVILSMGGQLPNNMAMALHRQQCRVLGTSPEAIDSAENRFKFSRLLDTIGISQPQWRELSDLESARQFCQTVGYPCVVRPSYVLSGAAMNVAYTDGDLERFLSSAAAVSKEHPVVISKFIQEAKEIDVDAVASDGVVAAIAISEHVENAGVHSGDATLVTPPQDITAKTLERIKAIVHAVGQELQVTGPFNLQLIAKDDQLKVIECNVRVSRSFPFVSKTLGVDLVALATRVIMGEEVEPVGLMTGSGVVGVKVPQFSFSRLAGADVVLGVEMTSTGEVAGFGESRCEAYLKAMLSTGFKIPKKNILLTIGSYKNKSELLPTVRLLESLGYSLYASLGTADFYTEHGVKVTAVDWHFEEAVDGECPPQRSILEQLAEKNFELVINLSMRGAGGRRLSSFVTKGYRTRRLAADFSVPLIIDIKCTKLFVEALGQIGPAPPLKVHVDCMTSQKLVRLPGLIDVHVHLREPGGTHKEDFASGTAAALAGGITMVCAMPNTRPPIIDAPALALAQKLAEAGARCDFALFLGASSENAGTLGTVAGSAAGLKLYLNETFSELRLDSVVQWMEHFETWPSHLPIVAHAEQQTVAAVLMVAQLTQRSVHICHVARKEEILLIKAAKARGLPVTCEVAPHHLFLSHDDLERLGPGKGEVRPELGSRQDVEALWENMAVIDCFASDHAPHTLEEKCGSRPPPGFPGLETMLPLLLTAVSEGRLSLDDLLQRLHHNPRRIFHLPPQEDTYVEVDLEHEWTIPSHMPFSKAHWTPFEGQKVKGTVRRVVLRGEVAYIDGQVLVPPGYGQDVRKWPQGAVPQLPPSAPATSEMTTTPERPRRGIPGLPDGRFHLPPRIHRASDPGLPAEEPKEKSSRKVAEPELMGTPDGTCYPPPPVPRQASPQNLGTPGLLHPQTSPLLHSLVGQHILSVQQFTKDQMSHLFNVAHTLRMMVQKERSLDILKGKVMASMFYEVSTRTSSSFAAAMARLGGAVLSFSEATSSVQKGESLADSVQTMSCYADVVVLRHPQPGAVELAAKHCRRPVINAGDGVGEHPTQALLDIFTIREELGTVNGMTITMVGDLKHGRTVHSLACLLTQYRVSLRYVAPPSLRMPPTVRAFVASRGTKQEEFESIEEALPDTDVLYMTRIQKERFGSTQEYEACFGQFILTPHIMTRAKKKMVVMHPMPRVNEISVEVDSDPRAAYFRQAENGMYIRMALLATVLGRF
UniProt Q9BX70: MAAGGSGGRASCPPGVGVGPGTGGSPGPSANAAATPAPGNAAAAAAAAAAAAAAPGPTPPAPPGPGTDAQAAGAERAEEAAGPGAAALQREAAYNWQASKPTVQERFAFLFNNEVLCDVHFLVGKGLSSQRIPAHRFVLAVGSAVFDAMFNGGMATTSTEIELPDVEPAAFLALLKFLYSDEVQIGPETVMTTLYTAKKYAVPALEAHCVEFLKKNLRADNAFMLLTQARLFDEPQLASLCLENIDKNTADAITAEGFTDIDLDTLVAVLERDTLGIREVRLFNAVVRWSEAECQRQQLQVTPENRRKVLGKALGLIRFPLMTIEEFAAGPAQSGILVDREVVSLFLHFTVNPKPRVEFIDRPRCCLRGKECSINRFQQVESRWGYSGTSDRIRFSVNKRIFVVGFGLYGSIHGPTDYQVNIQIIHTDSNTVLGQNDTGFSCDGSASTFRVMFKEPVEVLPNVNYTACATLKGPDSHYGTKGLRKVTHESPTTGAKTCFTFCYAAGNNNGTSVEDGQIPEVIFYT
UniProt Q8N5S9: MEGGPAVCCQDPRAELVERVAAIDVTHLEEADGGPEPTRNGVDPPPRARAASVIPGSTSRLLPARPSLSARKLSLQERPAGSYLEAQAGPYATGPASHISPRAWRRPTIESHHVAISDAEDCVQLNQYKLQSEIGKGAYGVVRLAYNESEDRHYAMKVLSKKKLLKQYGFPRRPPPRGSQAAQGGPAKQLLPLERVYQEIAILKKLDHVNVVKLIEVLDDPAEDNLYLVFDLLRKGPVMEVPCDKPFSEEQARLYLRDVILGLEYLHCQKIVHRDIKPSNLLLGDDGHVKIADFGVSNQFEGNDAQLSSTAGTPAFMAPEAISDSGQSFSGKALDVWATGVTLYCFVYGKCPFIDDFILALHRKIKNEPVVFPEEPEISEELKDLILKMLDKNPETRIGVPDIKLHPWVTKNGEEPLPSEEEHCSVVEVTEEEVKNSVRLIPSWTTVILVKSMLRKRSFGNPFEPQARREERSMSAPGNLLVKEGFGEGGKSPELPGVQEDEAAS
UniProt O75155: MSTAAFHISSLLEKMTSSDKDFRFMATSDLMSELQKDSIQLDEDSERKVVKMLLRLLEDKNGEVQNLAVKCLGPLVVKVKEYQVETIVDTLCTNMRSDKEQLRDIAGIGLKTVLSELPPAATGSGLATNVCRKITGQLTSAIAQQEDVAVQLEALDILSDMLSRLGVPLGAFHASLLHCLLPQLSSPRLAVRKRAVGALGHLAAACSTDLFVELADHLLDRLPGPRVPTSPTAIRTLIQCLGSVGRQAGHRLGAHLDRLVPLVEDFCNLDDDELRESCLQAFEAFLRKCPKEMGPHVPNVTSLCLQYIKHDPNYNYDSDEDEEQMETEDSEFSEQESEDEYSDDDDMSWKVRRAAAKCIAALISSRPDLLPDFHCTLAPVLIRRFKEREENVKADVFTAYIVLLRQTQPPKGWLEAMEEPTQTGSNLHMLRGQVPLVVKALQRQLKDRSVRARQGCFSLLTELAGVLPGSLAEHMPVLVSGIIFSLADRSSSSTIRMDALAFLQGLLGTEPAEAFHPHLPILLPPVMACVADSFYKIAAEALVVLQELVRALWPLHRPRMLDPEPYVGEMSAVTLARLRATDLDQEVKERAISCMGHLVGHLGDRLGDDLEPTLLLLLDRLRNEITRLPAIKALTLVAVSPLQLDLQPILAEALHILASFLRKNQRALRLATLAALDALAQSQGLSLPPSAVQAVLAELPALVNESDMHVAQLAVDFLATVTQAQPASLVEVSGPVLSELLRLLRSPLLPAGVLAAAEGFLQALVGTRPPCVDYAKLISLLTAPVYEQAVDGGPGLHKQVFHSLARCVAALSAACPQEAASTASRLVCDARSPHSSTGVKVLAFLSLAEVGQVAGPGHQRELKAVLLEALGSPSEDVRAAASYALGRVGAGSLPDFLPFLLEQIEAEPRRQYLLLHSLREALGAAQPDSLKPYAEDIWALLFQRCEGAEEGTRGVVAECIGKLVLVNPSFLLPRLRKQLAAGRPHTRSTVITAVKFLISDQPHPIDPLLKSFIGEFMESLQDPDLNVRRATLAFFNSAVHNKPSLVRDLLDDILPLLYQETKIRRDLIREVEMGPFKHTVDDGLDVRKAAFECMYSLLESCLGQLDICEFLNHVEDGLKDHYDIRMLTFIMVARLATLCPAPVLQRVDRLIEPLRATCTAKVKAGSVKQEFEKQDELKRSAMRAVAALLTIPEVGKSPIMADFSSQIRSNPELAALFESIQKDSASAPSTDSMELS
UniProt A6NDU8: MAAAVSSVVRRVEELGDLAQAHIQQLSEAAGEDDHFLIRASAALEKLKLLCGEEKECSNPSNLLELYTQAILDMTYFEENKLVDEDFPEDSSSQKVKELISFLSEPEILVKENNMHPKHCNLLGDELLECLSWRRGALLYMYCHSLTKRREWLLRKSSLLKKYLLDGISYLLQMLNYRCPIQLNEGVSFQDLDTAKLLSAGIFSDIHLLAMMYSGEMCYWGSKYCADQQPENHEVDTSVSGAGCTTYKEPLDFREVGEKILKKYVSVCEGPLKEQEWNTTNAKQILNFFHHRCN
UniProt Q9BX63: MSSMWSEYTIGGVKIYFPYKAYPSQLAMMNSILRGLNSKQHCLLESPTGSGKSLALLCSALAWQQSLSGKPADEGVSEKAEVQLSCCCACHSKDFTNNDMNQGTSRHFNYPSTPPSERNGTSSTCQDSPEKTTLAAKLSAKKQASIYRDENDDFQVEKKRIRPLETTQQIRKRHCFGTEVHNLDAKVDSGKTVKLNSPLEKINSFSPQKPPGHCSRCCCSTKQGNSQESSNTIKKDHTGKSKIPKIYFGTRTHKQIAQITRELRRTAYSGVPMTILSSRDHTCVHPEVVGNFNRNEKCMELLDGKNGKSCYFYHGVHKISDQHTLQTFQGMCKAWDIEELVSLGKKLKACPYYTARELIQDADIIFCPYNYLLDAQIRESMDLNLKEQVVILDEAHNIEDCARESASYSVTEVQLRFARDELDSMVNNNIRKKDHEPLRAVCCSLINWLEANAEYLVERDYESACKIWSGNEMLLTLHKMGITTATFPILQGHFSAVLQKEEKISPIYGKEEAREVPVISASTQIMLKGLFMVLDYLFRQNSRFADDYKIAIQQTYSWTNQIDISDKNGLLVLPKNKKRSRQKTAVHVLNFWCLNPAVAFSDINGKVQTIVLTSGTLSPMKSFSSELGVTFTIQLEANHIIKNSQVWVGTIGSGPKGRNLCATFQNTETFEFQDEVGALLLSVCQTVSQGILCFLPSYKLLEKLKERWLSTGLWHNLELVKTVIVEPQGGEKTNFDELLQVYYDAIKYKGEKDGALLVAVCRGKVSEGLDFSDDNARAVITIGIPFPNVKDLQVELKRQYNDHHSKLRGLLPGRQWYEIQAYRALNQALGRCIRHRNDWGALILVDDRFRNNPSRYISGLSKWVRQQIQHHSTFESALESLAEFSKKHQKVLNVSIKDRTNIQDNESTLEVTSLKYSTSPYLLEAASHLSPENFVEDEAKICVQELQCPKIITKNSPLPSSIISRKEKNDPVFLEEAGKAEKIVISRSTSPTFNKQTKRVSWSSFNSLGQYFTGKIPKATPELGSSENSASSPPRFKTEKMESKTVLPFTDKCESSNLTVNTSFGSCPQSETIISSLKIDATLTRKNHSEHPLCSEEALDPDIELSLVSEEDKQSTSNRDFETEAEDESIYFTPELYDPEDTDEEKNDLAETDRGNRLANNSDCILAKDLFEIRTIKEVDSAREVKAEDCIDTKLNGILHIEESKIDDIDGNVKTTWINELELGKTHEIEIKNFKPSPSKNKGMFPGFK
UniProt Q8N9M1: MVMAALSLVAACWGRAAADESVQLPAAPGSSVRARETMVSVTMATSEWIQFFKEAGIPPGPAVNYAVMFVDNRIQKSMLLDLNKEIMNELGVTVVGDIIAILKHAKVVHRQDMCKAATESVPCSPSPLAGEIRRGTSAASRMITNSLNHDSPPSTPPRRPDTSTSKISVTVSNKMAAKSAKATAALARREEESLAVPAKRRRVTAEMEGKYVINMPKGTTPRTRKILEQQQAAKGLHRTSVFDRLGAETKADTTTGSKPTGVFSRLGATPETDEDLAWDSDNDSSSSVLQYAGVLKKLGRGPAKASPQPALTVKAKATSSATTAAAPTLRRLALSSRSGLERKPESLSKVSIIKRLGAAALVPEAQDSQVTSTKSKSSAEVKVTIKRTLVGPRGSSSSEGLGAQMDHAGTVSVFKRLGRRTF

Row | Target | probe-labelled cysteine peptide fold change (10 µM) | probe-labelled cysteine peptide fold change (50 µM)
1 | C2CD2_Q9Y426_244_EAQNLQCAASTAQESCPPKPPR (UniProt Q9Y426) | -0.108 | -0.0779
2 | C12orf4_Q9NQ89_55_LMLLHSLPCFIEK (UniProt Q9NQ89) | -0.0485 | 0.0867
3 | C8orf37_Q96NL8_33_GCGGGTHSSDR (UniProt Q96NL8) | 0.133 | -0.242
4 | CAD_P27708_986_TIMVNYNPETVSTDYDMCDR (UniProt P27708) | -0.138 | -0.21
5 | BSG_P35613_242_SSEHINEGETAMLVCK (UniProt P35613) | -0.00409 | -0.171
6 | CAD_P27708_2161_FGSTQEYEACFGQFILTPHIMTR (UniProt P27708) | -0.0115 | 0.0109
7 | BZW2_Q9Y6E2_270_LSQECPIK (UniProt Q9Y6E2) | 0.311 | 0.132
8 | BUB1B_O60566_700_CLQIPEK (UniProt O60566) | 0.00823 | 0.371
9 | BRMS1_Q9HCU9_60_SECVSEMLDLEK (UniProt Q9HCU9) | 0.0403 | -0.00198
10 | BTBD2_Q9BX70_294_WSEAECQR (UniProt Q9BX70) | -0.0695 | -0.00465
11 | BTBD2_Q9BX70_241_LFDEPQLASLCLENIDK (UniProt Q9BX70) | 0.22 | 0.0147
12 | BRD1_O95696_729_ELLDMLDLTCAMK (UniProt O95696) | -0.0243 | -0.232
13 | BSG_P35613_203_VDSDDQWGEYSCVFLPEPMGTANIQLHGPPR (UniProt P35613) | 0.108 | 0.134
14 | C12orf10_Q9HB07_56+62_IGTHNGTFHCDEALACALLR (UniProt Q9HB07) | 0.0606 | -0.0519
15 | CALR_P27797_163_CKDDEFTHLYTLIVR (UniProt P27797) | 0.0557 | 0.0851
16 | C2CD2L_O14523_359_SSSCGDTELLGQATLPVGSPSRPLSR (UniProt O14523) | 0.26 | 0.244
17 | CAMKK1_Q8N5S9_351_CPFIDDFILALHR (UniProt Q8N5S9) | -0.277 | 0.12

Row | Target | probe-labelled cysteine peptide fold change (10 µM) | probe-labelled cysteine peptide fold change (50 µM)
18 | C12orf29_Q8N999_13_KMPCVFVTEVK (UniProt Q8N999) | -0.152 | -0.15
19 | BROX_Q5VW32_52_LLELFTDLSCNPEMMK (UniProt Q5VW32) | -0.0592 | -0.107
20 | C6orf89_Q6UWU4_28_QTGHQCGMSEK (UniProt Q6UWU4) | -0.188 | -0.211
21 | CAND2_O75155_358_CIAALISSRPDLLPDFHCTLAPVLIR (UniProt O75155) | 0.164 | 0.095
22 | C5orf51_A6NDU8_120+130_HCNLLGDELLECLSWR (UniProt A6NDU8) | 0.467 | 0.253
23 | BRIP1_Q9BX63_283_DHTCVHPEVVGNFNR (UniProt Q9BX63) | 0.128 | 0.0739
24 | BTK_Q06187_527_NCLVNDQGVVK (UniProt Q06187) | 0.0973 | 0.0844
25 | C12orf49_Q9H741_93_HLITDELGYVCER (UniProt Q9H741) | -0.136 | -0.121
26 | C5orf51_A6NDU8_268_YVSVCEGPLK (UniProt A6NDU8) | 0.0584 | 0.0286
27 | C1orf112_Q9NSG2_559_EQTVHEVTTVGTAECR (UniProt Q9NSG2) | -0.141 | 0.031
28 | C5orf51_A6NDU8_120_HCNLLGDELLECLSWR (UniProt A6NDU8) | -0.0141 | 0.102
29 | CAMK2B_Q13554_273_HPWVCQR (UniProt Q13554) | 0.194 | 0.117
30 | CAND2_O75155_375_CIAALISSRPDLLPDFHCTLAPVLIR (UniProt O75155) | 0.0844 | -0.333
31 | CAMKV_Q8NCB2_181_EPCGTPEYLAPEVVGR (UniProt Q8NCB2) | 0.076 | -0.131
32 | C17orf75_Q9HAS0_265_FLSVASLQGLIHEGTMTSLCMAMTEEQHK (UniProt Q9HAS0) | -0.00782 | -0.264
33 | C19orf47_Q8N9M1_123_AATESVPCSPSPLAGEIR (UniProt Q8N9M1) | 0.15 | 0.0526
34 | C11orf54_Q9H0W9_3_ACAEFSFHVPSLEELAGVMQK (UniProt Q9H0W9) | -0.285 | -0.183

Some of the entries above, set out differently.

| Row | Target | probe-labelled cysteine peptide fold change (10 µM) | probe-labelled cysteine peptide fold change (50 µM) |
| --- | --- | --- | --- |
| 23 | BRIP1_Q9BX63_283_DHTCVHPEVVGNFNR (UniProt Q9BX63) | 0.128 | 0.0739 |
| 33 | C19orf47_Q8N9M1_123_AATESVPCSPSPLAGEIR (UniProt Q8N9M1) | 0.15 | 0.0526 |

From the supplement of paper PMC12067093, “Discovery and optimisation of a covalent ligand for TRIM25 and its application to targeted protein ubiquitination” (Chemical Science, 2025)
